# Laboratory results taken from the supplement of paper PMC11348887.
# Structures can show the parent of a compound that is named as a salt. This is one part of the list. Most values lie at the level of the controls, where differences are scatter.
# Experiments:
# Details in all cases: 5 µM; treatment: days 7-14 after plating, readout day 21
# [1] = system: hPSC-derived cortical neurons (WA09); test: nucleus area z-score vs screen plate; higher = larger nuclei (more mature)
# [2] = system: hPSC-derived cortical neurons (WA09); test: total neurite length per nucleus (MAP2) z-score; higher = more neurite growth
# [3] = system: hPSC-derived cortical neurons (WA09); test: nucleus roundness z-score vs screen plate; higher = rounder nuclei (more mature)
# [4] = system: hPSC-derived cortical neurons (WA09); test: KCl-induced FOS+/EGR-1+ double-positive nuclei fraction z-score (KCl minus unstimulated); higher = stronger activity-induced IEG response
SMILES,nucleus area z-score [1],total neurite length per nucleus (z-score) [2],nucleus roundness z-score [3],KCl-induced FOS+/EGR-1+ double-positive nuclei fraction z-score [4]
Cc1c(C(=O)NN2CCCCC2)nn(-c2ccc(Cl)cc2Cl)c1-c1ccc(I)cc1,1.82,-0.367,0.0489,0.332
CO/N=C(\C(=O)N[C@@H]1C(=O)N2C(C(=O)OCOC(=O)C(C)(C)C)=C(/C=C\c3scnc3C)CS[C@H]12)c1csc(N)n1 [Cefditoren Pivoxil],0.283,0.182,0.242,-0.062
O=C(O)c1ccccc1Nc1cccc(C(F)(F)F)c1 [Flufenamic acid],0.187,0.0576,0.156,-0.605
Cn1cnc2c(F)c(Nc3ccc(Br)cc3Cl)c(C(=O)NOCCO)cc21 [Selumetinib (AZD6244)],-1.64,1.07,0.371,0.249
COc1cccc2c1c(O)c(C(=O)N(C)c1ccc(C(F)(F)F)cc1)c(=O)n2C [Tasquinimod],0.717,0.197,2.04,-0.286
CCc1cc(/C(C)=N/OCc2ccc(C3CCCCC3)c(C(F)(F)F)c2)ccc1CN1CC(C(=O)O)C1 [BAF312 (Siponimod)],0.158,0.801,0.803,0.632
CC(=O)O[C@]1(C(C)=O)CC[C@H]2[C@@H]3C[C@H](C)C4=CC(=O)C=C[C@]4(C)[C@@]3(F)[C@@H](O)C[C@@]21C [Fluorometholone Acetate],-0.47,0.145,0.0197,-0.558
Nc1nc2c(ncn2[C@@H]2O[C@H](CO)[C@@H](O)[C@H]2O)c(=O)[nH]1 [Guanosine],0.453,0.994,0.369,1.67
CCS(=O)(=O)Nc1ccc2c(c1)/C(=C(/Nc1ccc(CN3CCCCC3)cc1)c1ccccc1)C(=O)N2 [Hesperadin],-3.75,-0.541,-5.7,-1.3
COc1nc(C)nc(Cl)c1NC1=NCCN1 [Moxonidine],-1.92,0.164,0.828,0.0171
COc1ccc2[nH]c([S+]([O-])Cc3ncc(C)c(OC)c3C)nc2c1 (stereo unspecified) [Omeprazole],-6.42,-2.23,1.24,-0.888
CNC(=O)c1ccc(Nc2ncc(C(F)(F)F)c(NCc3nccnc3N(C)S(C)(=O)=O)n2)cc1,-0.387,1.09,-0.447,0.944
O=C(/C=C/N1C[C@H]2C[C@@H]1CN2c1ccccn1)c1ccccc1O,1.41,1.94,0.6,1.36
CCOc1ccc(NC(C)=O)cc1 [Phenacetin],-0.0649,0.0298,0.0166,2.05
Nc1nc(F)nc2c1ncn2[C@@H]1O[C@H](COP(=O)(O)O)[C@@H](O)[C@@H]1O [Fludarabine Phosphate],0.6,6.61,1.33,5.76
CCc1cc(Nc2nccc(-c3c(-c4ccc(OC)c(C(=O)Nc5c(F)cccc5F)c4)nc4ccccn34)n2)c(OC)cc1N1CCC(N2CCN(S(C)(=O)=O)CC2)CC1,-2.4,-1.83,-1.78,-0.687
O=C1c2c(O)cccc2C([C@@H]2O[C@H](CO)[C@@H](O)[C@H](O)[C@H]2O)c2cc(CO)cc(O)c21 (stereo partly specified) [Aloin],-0.214,0.361,0.343,0.265
CCN(CC)CCNC(=O)c1c(C)[nH]c(/C=C2\C(=O)Nc3ccc(F)cc32)c1C [Sunitinib],-2.57,-1.04,-6.07,-0.241
CN(C)c1ccc(-c2nc3ncc(Cl)c(N4CCN(CC(=O)Nc5nccs5)CC4)c3[nH]2)cc1,-0.504,0.222,0.654,-0.416
Cc1cccc(CC(=O)N2CCc3c2ccc(-c2cn(C)c4ncnc(N)c24)c3F)n1,-0.466,0.699,-0.0752,-0.882
O=C(NC1CCN(CCCCC2(C(=O)NCC(F)(F)F)c3ccccc3-c3ccccc32)CC1)c1ccccc1-c1ccc(C(F)(F)F)cc1 [Lomitapide],-16.3,-6.28,0.802,-0.983
CCc1ccc(CCOc2ccc(CC3SC(=O)NC3=O)cc2)nc1 (stereo unspecified) [Pioglitazone],-0.104,0.914,0.103,0.662
N[C@@H]1CCCN(c2c(/C=C3\SC(=O)NC3=O)cccc2-c2ccccc2)C1,0.0386,0.175,0.508,0.0798
CCC(=O)c1c(O)cc(O)cc1O [Flopropione],0.286,0.311,-0.297,-0.0127
CC(C)OC(=O)C(C)(C)Oc1ccc(C(=O)c2ccc(Cl)cc2)cc1 [Fenofibrate],0.0214,-0.133,0.0568,0.297
CC(C)(O)CC(=O)NCCn1ccc2ncnc(Nc3ccc(Oc4cccc(C(F)(F)F)c4)c(Cl)c3)c21,0.328,0.649,0.00406,0.705
CN(C)CCOC(=O)COc1ccc(Cl)cc1 [Meclofenoxate (Centrophenoxine) HCl],0.306,0.102,0.2,0.919
CC1CC(OC(=O)C(O)c2ccccc2)CC(C)(C)C1 (stereo unspecified) [Cyclandelate],0.33,0.494,0.129,-0.457
COc1ccc(CNc2nc(N3CCC[C@H]3CO)ncc2C(=O)NCc2ncccn2)cc1Cl [Avanafil],-0.441,0.645,0.216,0.226

# An excerpt from the list above, as a working copy:
SMILES,nucleus area z-score [1],total neurite length per nucleus (z-score) [2],nucleus roundness z-score [3],KCl-induced FOS+/EGR-1+ double-positive nuclei fraction z-score [4]
O=C(NC1CCN(CCCCC2(C(=O)NCC(F)(F)F)c3ccccc3-c3ccccc32)CC1)c1ccccc1-c1ccc(C(F)(F)F)cc1 [Lomitapide],-16.3,-6.28,0.802,-0.983
CCc1ccc(CCOc2ccc(CC3SC(=O)NC3=O)cc2)nc1 (stereo unspecified) [Pioglitazone],-0.104,0.914,0.103,0.662
